Results of single-concentration screens

By UniProt entry, the sequences of proteins in these tests, tags left out.
UniProt P9WFT3, whole entry: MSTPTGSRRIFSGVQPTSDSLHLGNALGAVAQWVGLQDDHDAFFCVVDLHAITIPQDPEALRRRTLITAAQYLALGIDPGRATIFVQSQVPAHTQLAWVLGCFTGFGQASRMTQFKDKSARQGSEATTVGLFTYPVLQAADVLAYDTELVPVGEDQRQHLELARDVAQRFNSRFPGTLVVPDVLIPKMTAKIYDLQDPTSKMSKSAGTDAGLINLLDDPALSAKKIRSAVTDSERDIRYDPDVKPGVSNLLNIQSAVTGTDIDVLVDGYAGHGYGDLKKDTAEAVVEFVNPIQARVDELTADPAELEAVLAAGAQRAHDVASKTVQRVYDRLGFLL

Measurements from “University of Dundee, Small-Polar-MMV Screening Library” (2021), ChEMBL document CHEMBL3988442.

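Tryptophan-tRNA ligase, Mycobacterium tuberculosis (UniProt P9WFT3). Enzyme assay of tryptophanyl-tRNA synthetase; the read-out is not stated. Concentration: 10 µM. Direction is not recorded; retested compounds ran higher, which suggests that high means inhibition. About 65,000 compounds were tested under these conditions; 0.098% (about 64) showed 50% or more at least once.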

The filed quantity is “Percent Effect” (%).
The record does not define 0% and 100%; most values in the screen are far below 50% and negative numbers occur (in some assays of this library far below -100).
This is an unselected part of the compounds tested.

SMILES,percent effect
O=C(COc1coc(CN2CCCCC2)cc1=O)Nc1cccc(Cl)c1,2.591%
CN(C)C(=O)COC[C@@]12CCC[C@@H]1CN(C1CCCC1)C2,3.779%
Cc1ccc(C2CCCCCN2CCCS(C)(=O)=O)o1 (configuration not stated),4.515%
Cc1sc2nc(C(F)(F)F)nc(N3CCC(NS(C)(=O)=O)CC3)c2c1C,-4.727%
Cc1cc(C(=O)Nc2nc3c(s2)CN(S(=O)(=O)C2CC2)CC3)c(C)o1,-28.56%
Fc1ccccc1C1(CNC2CCOC3(CCOCC3)C2)CCCC1 (configuration not stated),5.302%
CN(C(=O)c1ccc2c(c1)nc(N1CC[C@H](O)C1)n2C)C1CCSCC1,2.721%
Cc1cccc(-n2nc(CC(C)C)nc2CCCC(N)=O)c1,2.308%
CN(C)C(=O)C1CN(Cc2ccsc2)Cc2ccnn2C1 (configuration not stated),5.426%
Cc1ccn2c(F)c(C(=O)N3CCC4(CCC(=O)N(C)C4)CC3)nc2c1,3.661%
N#Cc1cccnc1N1CCCN(C(=O)CCc2cccs2)CC1,0.5146%
CCOC1Sc2nnc(C)n2N=C1c1ccc(F)cc1 (configuration not stated),1.55%
Cc1cc(NC(=O)N2CCN(C)CC2C)n(C)n1 (configuration not stated),-2.557%
CO[C@H]1CN(S(=O)(=O)c2cn(C)cn2)[C@@H]2CCCO[C@H]12,-6.909%
O=C1NC2(CCN(Cc3cccs3)CC2)CC1c1ccncc1 (configuration not stated),-5.231%
COCCNC(=O)Nc1cccc(COCCOC(C)C)c1,0.2863%
Cc1noc(C(C)N2CCc3[nH]c4ccc(Cl)cc4c3C2)n1 (configuration not stated),3.524%
Fc1ccccc1CC1CCN(Cc2ccccn2)CC1,-5.651%
CC(=O)N1CC(=O)N(c2cnn(C)c2)CC12CCN(Cc1ccoc1)C2 (configuration not stated),-0.5629%
Cc1csc(CN2CC[C@H]3C[C@H](c4nc(C)no4)O[C@@H]3C2)n1,-0.6006%
CN(C)S(=O)(=O)N1C[C@H]2CCC[C@@]2(COCC2CCOCC2)C1,7.699%
CCC(=O)c1ccc(Br)cc1NN1c2cc(Br)ccc2C(=O)C1(C)OC (configuration not stated),2.576%
Cc1ncc(CNC(=O)N(CCCO)C2CCc3ccccc32)s1 (configuration not stated),-6.23%
COCCN1C(=O)[C@H]2CC[C@@H]1CN(C(=O)Cc1c(F)cccc1Cl)C2,4.924%
COC(=O)[C@H]1CN(C(=O)NC(C)C)CCN1C(=O)c1cccs1,-6.099%
Cn1cc(C(=O)CC2CCCN2C(=O)c2cccc3ncccc23)cn1 (configuration not stated),12.07%
CCOCc1ccc(CNC2=NCCCN2)cc1,-0.2793%
CN1CCN(S(C)(=O)=O)c2cc(F)ccc21,-3.271%
Cc1ccc(C2CN(C(=O)c3ccn(C)c(=O)c3)CCO2)nc1 (configuration not stated),3.884%
CCOC(=O)CNC(=O)N1CCc2onc(-c3ccc(Cl)cc3)c2C1,4.632%
Cc1cc(NCc2cc3n(n2)CCCN(C(=O)N(C)C)C3)ncn1,3.091%
CCc1cnc(N2CCN(Cc3ccno3)CC2)s1,2.523%
CN(Cc1cnn(-c2ccccc2)n1)C1CCCN(c2cccnn2)C1 (configuration not stated),-11.3%
c1cnnc(N[C@@H]2CC[C@@H]3CN(Cc4ccc5cc[nH]c5c4)C[C@@H]32)c1,0.2514%
COc1ccc(C(O)CNC(=O)NCCc2csc(C)n2)cc1 (configuration not stated),-6.553%
CCC(NC(=O)Cn1ccc(=O)n(C)c1=O)c1ccccc1OC (configuration not stated),-1.456%
CC1CS(=O)(=O)CCN1CCCc1ccc(C(F)(F)F)cc1 (configuration not stated),0.4289%
CCC[C@@H]1CN(Cc2cc3c(cc2OC)OCCO3)C[C@H]1C(=O)O,-6.454%
CNC(=O)C1CN(c2ccnc(C)n2)CCN1Cc1ccccc1 (configuration not stated),-6.836%
CC1(C)OC(=O)N(CCOc2ccc(F)cc2)C1=O,3.06%
COc1cc(N2CCCn3cnc(COCCO)c3C2)ncn1,1.48%
COc1ccccc1N1CCC(CNC(=O)CN2CSCC2=O)C1 (configuration not stated),-4.545%
Cc1ncc(C(=O)N2CC[C@@]3(O)CCN(C4CCCCC4)C[C@H]3C2)cn1,-0.5947%
Oc1cccc(CNCCC2CCCO2)c1 (configuration not stated),0.09633%
Cc1ccc(C(=O)Nc2ccn(CCC(N)=O)n2)cc1,-4.62%
CCOCc1cncc2c1CCN(S(=O)(=O)c1cccc(C)c1)C2,-2.468%
Cc1cccc(S(=O)(=O)N2CSCC2C(=O)NCC2CC2)c1 (configuration not stated),3.127%
O=C1[C@@H]2CCN(Cc3ccccn3)C[C@@H]2OCCN1c1ccccc1,2.35%
OCCc1cc(CC2(NCc3ccncc3)COC2)no1,-3.996%
CCn1nc(C)c2ncnc(NCC(=O)N3CCOCC3)c21,1.809%
CC(=O)N1C(CN2CCCC2)C[C@@H]2CN(C(=O)c3ccoc3)CC[C@@H]21 (some centres not stated),-3.198%
CC(C)CN1C(=O)C2(CCCC2)NC12CCSCC2,-2.727%
O=C(c1cccnc1)N1C[C@@H]2CC[C@H](C1)N(Cc1cc(F)ccc1F)C2,0.2138%
CNC(=O)NC(C)c1c(F)cccc1Cl (configuration not stated),7.969%
Nc1ncc(CN2CCC(O)(c3ccccc3F)CC2)cn1,-0.8293%
Cc1cc2nc(CO[C@H]3CN(C4CCN(C)CC4)C[C@H]3F)[nH]c2cc1C,-0.3794%
CC1(CNS(=O)(=O)c2cccc(C(=O)N3CCSCC3)c2)COC1,1.156%
COCCN(CCC#N)S(=O)(=O)c1cc(F)cc(F)c1,-0.6054%
NC(=O)C1CCN(c2ccc3cc(Br)ccc3n2)C1 (configuration not stated),-1.799%
CCc1nc(NC(=O)NCCc2cscn2)nn1C,0.551%
Cc1[nH]n(-c2ccccc2)c2nnc(N)c1-2,6.437%
CN(Cc1ccno1)C(=O)c1cccc(CC2CCNCC2)c1,4.108%
CN(C1CCCCC1)S(=O)(=O)N1CCN(Cc2ccco2)CC1,2.427%
Cc1nc(C)c2c(n1)CCN(C(=O)CC1CC1)CC2,1.831%
CCCC(C)CS(=O)(=O)NCc1cccnc1N(C)C (configuration not stated),-0.6988%
CCCN(Cc1ccccc1O)S(=O)(=O)N(C)CC,-1.625%
CCn1c(N)nc2cc(C(=O)N3CCCN(C)CC3)cnc21,2.379%
CNC(=O)c1cc(NC(=O)NCC2CCS(=O)(=O)C2)ccc1OC (configuration not stated),1.26%
CCc1cnc(CNC(=O)NCCc2ccc(O)cc2)s1,1.211%
CC(C)C(NC(=O)c1ccc(N2CCOCC2)nc1)c1cccs1 (configuration not stated),-3.131%
CCOC1CCCN(C(=O)c2nn(-c3ccccc3F)cc2O)C1 (configuration not stated),-3.011%
CSCCCN1C[C@H](NC(=O)c2ccc(C#N)nc2)[C@@H](C2CC2)C1,-0.2441%
CN(C)C[C@@H]1C[C@@H]2CN(c3ncc(F)cn3)CC[C@@H]2N1C,-0.4937%
CCc1nc(CNc2cc(Cl)ccc2OCC2CCCO2)no1 (configuration not stated),0.97%
COc1ccc(COCC(O)CNC(=O)Cc2ccc(C)cc2)cc1 (configuration not stated),-1.661%
Cc1cc(CNC(=O)C(c2ccc(F)cc2)N(C)C)n[nH]1 (configuration not stated),1.83%
CC(Nc1cccc(F)c1C#N)c1cccc(S(N)(=O)=O)c1 (configuration not stated),2.824%
O=C(CSC1CCc2ccccc2NC1=O)NCCc1ccc(O)cc1 (configuration not stated),1.36%
Cc1cc(C)c(CNC(=O)N(C)CC2CCCCO2)c(=O)[nH]1 (configuration not stated),-1.73%
CSCC(=O)N(C)Cc1ccccc1,-3.419%
c1cn(CCNc2nc(NC3CC3)nc3c2CCNCC3)nn1,0.1904%
CCO[C@@H]1CCN(C(=O)c2cnc(C)cn2)[C@@H]1Cc1cnn(C)c1,-5.08%
CCCN(C)CCC(=O)N1CCCC1Cn1cccn1 (configuration not stated),-9.054%
CC(C)(C)c1n[nH]c(C2CN(Cc3nnc(C4CCC4)o3)CCO2)n1 (configuration not stated),-1.49%
CNCc1ccc([C@@H]2CN(C)C[C@H]2C(N)=O)cc1,15.23%
CCOC(=O)CN1CCC2(CC1)CC(NC(=O)c1ccccn1)CO2 (configuration not stated),-1.355%
OCC1(O)CCN(c2ncccc2C(F)(F)F)CC1,1.341%
CCn1cnnc1C1CCN(C(=O)c2cc(C)c(C)s2)CC1,17.77%

Some entries from above, unchanged:

{"smiles": "c1cnnc(N[C@@H]2CC[C@@H]3CN(Cc4ccc5cc[nH]c5c4)C[C@@H]32)c1", "percent effect": 0.2514}
{"smiles": "CSCC(=O)N(C)Cc1ccccc1", "percent effect": -3.419}
{"smiles": "CC(=O)N1C(CN2CCCC2)C[C@@H]2CN(C(=O)c3ccoc3)CC[C@@H]21", "stereo": "some centres not stated", "percent effect": -3.198}
{"smiles": "Cc1ccn2c(F)c(C(=O)N3CCC4(CCC(=O)N(C)C4)CC3)nc2c1", "percent effect": 3.661}
{"smiles": "Fc1ccccc1C1(CNC2CCOC3(CCOCC3)C2)CCCC1", "stereo": "configuration not stated", "percent effect": 5.302}